## Percent effect of library compounds

Sequences of proteins named here, by UniProt entry; tags and fusion partners are left off.
UniProt P9WNZ1, whole entry: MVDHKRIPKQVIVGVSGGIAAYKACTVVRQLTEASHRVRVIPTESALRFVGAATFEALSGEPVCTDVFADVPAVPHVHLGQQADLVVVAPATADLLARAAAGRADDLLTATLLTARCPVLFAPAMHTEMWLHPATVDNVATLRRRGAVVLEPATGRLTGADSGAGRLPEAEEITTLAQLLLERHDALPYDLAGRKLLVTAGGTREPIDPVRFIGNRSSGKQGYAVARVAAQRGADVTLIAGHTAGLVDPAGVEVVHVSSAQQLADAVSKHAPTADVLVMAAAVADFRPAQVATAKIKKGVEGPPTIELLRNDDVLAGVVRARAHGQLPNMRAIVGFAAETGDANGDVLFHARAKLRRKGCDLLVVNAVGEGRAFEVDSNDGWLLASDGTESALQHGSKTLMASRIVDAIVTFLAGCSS
UniProt P9WFT3, whole entry: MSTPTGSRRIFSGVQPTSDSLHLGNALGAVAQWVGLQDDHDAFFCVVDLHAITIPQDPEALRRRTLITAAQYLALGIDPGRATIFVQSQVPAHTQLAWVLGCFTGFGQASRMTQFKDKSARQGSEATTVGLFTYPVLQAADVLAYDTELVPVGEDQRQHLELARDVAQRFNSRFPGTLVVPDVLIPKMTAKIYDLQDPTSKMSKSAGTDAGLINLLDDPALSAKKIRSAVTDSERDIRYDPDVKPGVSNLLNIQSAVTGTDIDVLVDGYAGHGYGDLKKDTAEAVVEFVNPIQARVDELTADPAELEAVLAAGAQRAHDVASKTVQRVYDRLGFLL

Data taken from ChEMBL document CHEMBL3988442, “University of Dundee, Small-Polar-MMV Screening Library” (2021).

CoaBC: 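Enzyme assay of CoaBC with a phosphate dye (Biomol Green) read at 650 nm. Target: Coenzyme A biosynthesis protein CoaBC, Mycobacterium tuberculosis (UniProt P9WNZ1). Compounds at 30 µM. Higher reads as stronger inhibition, judged from the few compounds that gave an IC50. Most strong results did not repeat in a second test. About 67,000 compounds were tested under these conditions; 0.06% (about 40) showed 50% or more at least once.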
MtTrpRS: 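Enzyme assay of tryptophanyl-tRNA synthetase; the read-out is not stated. Target: Tryptophan-tRNA ligase, Mycobacterium tuberculosis (UniProt P9WFT3). Tested at 10 µM. Higher most likely means stronger inhibition; the record gives no direction and few retests gave an IC50. About 65,000 compounds were tested under these conditions; 0.098% (about 64) showed 50% or more at least once.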

The filed quantity is “Percent Effect” (%).
How 0% and 100% were set is not recorded. Most values in the screen are low, and negative values occur.
This is an unselected part of the compounds tested.

For COc1ccc(C(=O)C2CCCN(c3cc(OC)ncn3)C2)c(C)c1 (configuration not stated) the result was CoaBC: 8.951%; MtTrpRS: 8.346%.
For CC(C)CC(O)C1CCN(Cc2cnc(-c3cccs3)nc2)CC1 (configuration not stated) the result was CoaBC: 10.37%; MtTrpRS: 3.444%.
For O=C(Nc1ccccc1OCCc1ccccn1)NC1CCOCC1 the result was MtTrpRS: 12.61%.
For C=C(C)CN(CC)C(=O)Nc1ccccc1CN(C)C(C)=O the result was CoaBC: 1.703%; MtTrpRS: 3.558%.
For Cn1cc(NC(=O)Cn2c(CS(C)(=O)=O)nc3ccccc32)cn1 the result was CoaBC: 10.12%; MtTrpRS: -0.1059%.
For COCC(O)CNC(=O)c1cnc(-c2ccccc2)nc1O (configuration not stated) the result was CoaBC: 10.02%; MtTrpRS: -2.864%.
For CN(C)c1ccc(CN(CC2CCCO2)C(=O)c2csnn2)cc1 (configuration not stated) the result was CoaBC: 7.807%; MtTrpRS: 10.2%.
For O=C(C1CCC1)N1C[C@H]2CNC[C@H]2C1 the result was CoaBC: -1.416%; MtTrpRS: 9.012%.
For NC(=O)c1cn[nH]c1C1CCCN1C(=O)c1cnccn1 (configuration not stated) the result was CoaBC: 7.126%; MtTrpRS: -6.046%.
For Cc1cncc(NC(=O)c2ccc(CN3CC[C@H](O)C3)cc2)c1 the result was CoaBC: -4.822%; MtTrpRS: -8.338%.
For Cc1ccc(-c2ncc(C(=O)NCCNC(=O)C(C)C)s2)c(C)c1 the result was CoaBC: 4.152%; MtTrpRS: -3.208%.
For O=C1[C@@H]2CCN(Cc3ccoc3)C[C@@H]2OCCN1Cc1cccnc1 the result was CoaBC: 2.85%; MtTrpRS: 0.3524%.
For Cn1cc(C2CCCN2CCCc2nc(-c3cccs3)no2)cn1 (configuration not stated) the result was CoaBC: 2.254%; MtTrpRS: 0.07825%.
For Cc1nn(C)c2ncc(S(=O)(=O)N3CCCC(C)CC3)cc12 (configuration not stated) the result was CoaBC: -2.479%; MtTrpRS: -4.932%.
For COC(=O)c1ccc(NS(=O)(=O)c2cnc(NC(C)=O)s2)cc1 the result was CoaBC: -4.619%; MtTrpRS: -1.036%.
For COc1ccc(OC)c(C2C3=C(COC3=O)Nc3[nH]nc(C)c32)c1 (configuration not stated) the result was CoaBC: 6.057%; MtTrpRS: 8.241%.
For C[C@@H]1CN(CCCOc2ccc(F)cc2)CC[C@@]1(O)C1CCOCC1 the result was CoaBC: -0.6734%; MtTrpRS: -0.2581%.
For CN(Cc1cccs1)C(=O)CNC1CCc2ncnn2C1 (configuration not stated) the result was CoaBC: 4.701%; MtTrpRS: -1.356%.
For O=C(NCCc1nc(-c2ccccn2)no1)c1ccc(C2CCCO2)s1 (configuration not stated) the result was CoaBC: 13.51%; MtTrpRS: -0.4036%.
For Fc1ccc(Sc2ccccc2CNC2=NCCN2)cc1 the result was CoaBC: 4.251%; MtTrpRS: 1.55%.
For CS(=O)(=O)CCCNC(=O)Nc1sc2ccccc2c1Cl the result was CoaBC: 5.579%; MtTrpRS: 0.5201%.
For Cc1nnc(CN2CCCC2c2ccc3c(c2)OCCO3)n1C (configuration not stated) the result was CoaBC: 0.1212%; MtTrpRS: 0.1347%.
For Cn1cc(C2CCCN2C(=O)c2cnc(-c3ncccn3)s2)cn1 (configuration not stated) the result was CoaBC: 0.6734%; MtTrpRS: -0.129%.
For Cc1ccccc1C(=O)NCCCN1CCc2ccccc2C1 the result was CoaBC: 6.266%; MtTrpRS: 17.46%.
For O=C(O)CCCNC(=O)N1CCc2c([nH]c3ccc(Cl)cc23)C1 the result was CoaBC: 0%; MtTrpRS: 0.3501%.
For O=c1[nH]nc(CNc2ncc(Br)cn2)[nH]1 the result was CoaBC: -3.186%; MtTrpRS: 1.358%.
For CC(C)CN1CCOC[C@H](Oc2ccc(S(C)(=O)=O)cc2)C1 the result was CoaBC: -0.9677%; MtTrpRS: -0.09292%.
For COc1cccc(OCCCc2cc(C#N)ccn2)c1 the result was CoaBC: 3.178%; MtTrpRS: 5.514%.